Measurements reported in patent EP4428145A1, “ANTIBACTERIAL PEPTIDE” (Sumitomo Chemical Company, Limited, priority 2021, dated 2024).
Not every detail of the peptide structures is certain; ends, links or a residue may be inferred. Where no end group is shown, it is not given here.

What was measured:
Format in all cases: cell-based, Lactobacillus sakei
[1] = test system: L. sakei; experiment: Oxidation stability test, antimicrobial activity after hydrogen peroxide treatment, spot-on-lawn (Experiment 8); parameters: key to Antimicrobial activity, Before oxidation treatment / Antimicrobial activity, After oxidation treatment: -: Without antimicrobial activity; +: With antimicrobial activity; ++: With strong antimicrobial activity; +++: With very strong antimicrobial activity; details: for Antimicrobial activity, After oxidation treatment: 1-mM solution treated with 10 mM hydrogen peroxide at 40°C for 6 hours
Experimental: (§1) Like in Experiment 1A, antimicrobial activity of the antimicrobial peptide was evaluated by a spot-on-lawn method. As the test bacteria, Lactobacillus sakei (NBRC15893) was used. After overnight culturing, the test bacteria were mixed and diluted with Lactobacilli AOAC agar so as to achieve a density of 4×10^7 CFU/mL, and the resultant was spread over an MRS plate containing 2% agar. The test liquid was spotted on the test bacteria, and incubated overnight at 30°C. The size of the growth inhibition circle of L. sakei was evaluated as the antimicrobial activity.
(§2) Nisin A used in Examples was Nisin from Lactococcus lactis 2.5% (manufactured by Sigma-Aldrich corporation) that was used after concentration and purification. The details of nisin A are as described by J. C. Slootweg et al., J. Pept. Sci., 19, 692-699(2013). To 1 g of commercially available 2.5% nisin A (containing about 25 mg of nisin A), 25 mL of water was added, and the resultant was stirred for 15 minutes at room temperature. Centrifugation (15 minutes, 2500 rpm) was carried out to separate off the precipitate, and only the supernatant was transferred to another tube. To the resulting solution, 20 mL of dichloromethane was added. To collect the white precipitate that was present between the aqueous layer and the organic layer, the upper layer and the lower layer were removed. Another round of centrifugation (15 minutes, 2500 rpm) was carried out to remove, again, the upper layer and the lower layer. The intermediate layer that was sought after was dried in a reduced-pressure centrifuge and re-dissolved in 7.45 mL of water, and thereby a 1-mM purified Nisin product was obtained. The resulting purified product was used as nisin A in each stability test.
The method of oxidation treatment is as described by Toshihiro T. et al., J. Proteome Res., 12, 753-762(2013). To a 1-mM solution of lactobacin A or nisin A, hydrogen peroxide was added to achieve a final concentration of 10 mM, followed by reaction at 40°C for 6 hours. After the completion of reaction, the reaction liquid was diluted with water to achieve a polypeptide concentration of 10 µM or 1 µM. By the same spot-on-lawn method as adopted in the above-mentioned antimicrobial activity test, the polypeptide was added in drops to form a growth inhibition circle of L. sakei, and thereby the antimicrobial activity of the polypeptide after oxidation treatment was evaluated. Development of the oxidation reaction was calculated as a relative value of the peak area obtained by LC/MS measurement of the oxidation-treated test solution relative to the non- oxidation-treated test solution. As a positive control (PC), culture supernatant of a nisin A-producing lactic acid bacterium (Lactococcus lactis ATCC-11454 strain) was used.

[2] = test system: L. sakei; experiment: Antimicrobial activity test on synthesized peptide, spot-on-lawn method (Experiment 5); parameters: key to Antimicrobial activity: -: Without antimicrobial activity; +: With antimicrobial activity; ++: With strong antimicrobial activity; +++: With very strong antimicrobial activity
[3] = test system: L. sakei; experiment: Wide pH-range stability test, antimicrobial activity after pH treatment, spot-on-lawn (Experiment 6); parameters: key to Antimicrobial activity after pH treatment / Antimicrobial activity, Untreated: -: Without antimicrobial activity; +: With antimicrobial activity; ++: With strong antimicrobial activity; +++: With very strong antimicrobial activity; details: for Antimicrobial activity after pH treatment: 30°C
Experimental: as §1
Each peptide was redissolved and prepared in the following buffer; Sodium acetate-acetic acid (50 mM, pH4.0), Sodium phosphate (50 mM, pH7.4), glycine-NaOH (50 mM, pH10.0). The test solution thus prepared at the above-specified pH was incubated at 30°C. The duration of the incubation was 0 hours, 0.5 hours, 2 hours, 4 hours, 6 hours, and 24 hours, and at the completion of the incubation, TFA was added in a final concentration of 0.2%. […] By the same spot-on-lawn method as adopted in the above-mentioned antimicrobial activity test, the polypeptide was added in drops to form a growth inhibition circle of L. sakei, and thereby the antimicrobial activity of the polypeptide after pH treatment was evaluated. As a positive control (PC), culture supernatant of a nisin A-producing lactic acid bacterium (Lactococcus lactis ATCC-11454 strain) was used. A sample that was prepared solely with a 0.2% TFA aqueous solution was used as an untreated control.
as §2

[4] = test system: L. sakei; experiment: Thermal stability test, antimicrobial activity after heat treatment, spot-on-lawn (Experiment 7); parameters: key to Antimicrobial activity after heat treatment / Antimicrobial activity, Untreated: -: Without antimicrobial activity; +: With antimicrobial activity; ++: With strong antimicrobial activity; +++: With very strong antimicrobial activity
Experimental: as §1, §2
The test solution was subjected to heat treatment at 80°C for 10 minutes, or at 80°C for 30 minutes, or at 100°C for 10 minutes, or at 100°C for 30 minutes, or at 121°C for 15 minutes. By the same spot-on-lawn method as adopted in the above-mentioned antimicrobial activity test, the polypeptide was added in drops to form a growth inhibition circle of L. sakei, and thereby the antimicrobial activity of the polypeptide after heat treatment was evaluated. As a positive control (PC), culture supernatant of a nisin A-producing lactic acid bacterium (Lactococcus lactis ATCC-1 1454 strain) was used. A sample without the heat process was used as an untreated control.

KIIRISKWSYYNTKTKKYYADNSAIMSTLGHTVVNGWVEHFPY [Lactobacin A]
Antimicrobial activity, Before oxidation treatment ([1]; 1 µM): +
Antimicrobial activity, Before oxidation treatment ([1]; 10 µM): ++
Antimicrobial activity, After oxidation treatment ([1]; diluted to 1 µM): +
Antimicrobial activity, After oxidation treatment ([1]; diluted to 10 µM): ++
oxidation stability of antimicrobial activity ([1]; result in words, after oxidation treatment with 10-mM hydrogen peroxide): did not lose its antimicrobial activity
Antimicrobial activity ([2]; 100 pM in water): -
Antimicrobial activity ([2]; 1 nM in water): -
Antimicrobial activity ([2]; 10 nM in water): -
Antimicrobial activity ([2]; 100 nM in water): +
Antimicrobial activity ([2]; 1 µM in water): ++
Antimicrobial activity ([2]; 10 µM in water): ++
concentration found to have antimicrobial activity against L. sakei ([2]; spot-on-lawn): ≥ 100 nM
Antimicrobial activity after pH treatment ([3]; 10 µM, pH 4.0, 0 hr): ++
Antimicrobial activity after pH treatment ([3]; 10 µM, pH 4.0, 0.5 hr): ++
Antimicrobial activity after pH treatment ([3]; 10 µM, pH 4.0, 2 hr): ++
Antimicrobial activity after pH treatment ([3]; 10 µM, pH 4.0, 4 hr): ++
Antimicrobial activity after pH treatment ([3]; 10 µM, pH 4.0, 6 hr): ++
Antimicrobial activity after pH treatment ([3]; 10 µM, pH 4.0, 24 hr): ++
Antimicrobial activity after pH treatment ([3]; 10 µM, pH 7.4, 0 hr): ++
Antimicrobial activity after pH treatment ([3]; 10 µM, pH 7.4, 0.5 hr): ++
Antimicrobial activity after pH treatment ([3]; 10 µM, pH 7.4, 2 hr): ++
Antimicrobial activity after pH treatment ([3]; 10 µM, pH 7.4, 4 hr): ++
Antimicrobial activity after pH treatment ([3]; 10 µM, pH 7.4, 6 hr): ++
Antimicrobial activity after pH treatment ([3]; 10 µM, pH 7.4, 24 hr): ++
Antimicrobial activity after pH treatment ([3]; 10 µM, pH 10.0, 0 hr): ++
Antimicrobial activity after pH treatment ([3]; 10 µM, pH 10.0, 0.5 hr): ++
Antimicrobial activity after pH treatment ([3]; 10 µM, pH 10.0, 2 hr): ++
Antimicrobial activity after pH treatment ([3]; 10 µM, pH 10.0, 4 hr): ++
Antimicrobial activity after pH treatment ([3]; 10 µM, pH 10.0, 6 hr): ++
Antimicrobial activity after pH treatment ([3]; 10 µM, pH 10.0, 24 hr): ++
Antimicrobial activity, Untreated ([3]; 10 µM, untreated control prepared solely with 0.2% TFA aqueous solution): ++
pH stability of antimicrobial activity ([3]; result in words, after 24 hours of incubation, pH4 to pH10.0): did not lose its antimicrobial activity
Antimicrobial activity after heat treatment ([4]; 10 µM, 80°C 10 mm): ++
Antimicrobial activity after heat treatment ([4]; 10 µM, 80°C 30 min): ++
Antimicrobial activity after heat treatment ([4]; 10 µM, 100°C 10 min): ++
Antimicrobial activity after heat treatment ([4]; 10 µM, 100°C 30 min): ++
Antimicrobial activity after heat treatment ([4]; 10 µM, 121°C 15 min): +
Antimicrobial activity, Untreated ([4]; 10 µM, sample without the heat process): ++
thermal stability of antimicrobial activity ([4]; result in words, heat treatment at 80°C or 100°C for 10 minutes or 30 minutes, or at 121°C for 15 minutes): did not lose its antimicrobial activity
